Publication PMC7153906
These are yes or no findings as the source states them, for the method shown. In cells and extracts the contact can be indirect. A yes stands for co-enrichment or nearness to the bait. Other partners may have been found.

Target: T1, TMEM98-BirA* (mouse) (UniProt Q91X86)
T1 sequence: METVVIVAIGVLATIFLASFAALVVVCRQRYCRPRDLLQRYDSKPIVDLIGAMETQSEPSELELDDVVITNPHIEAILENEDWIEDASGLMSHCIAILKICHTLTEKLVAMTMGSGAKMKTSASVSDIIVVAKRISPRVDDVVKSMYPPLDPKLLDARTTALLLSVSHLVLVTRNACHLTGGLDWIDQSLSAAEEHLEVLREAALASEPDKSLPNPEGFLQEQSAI
Assay: proximity labelling; BioID in stable ARPE-19 cells expressing TMEM98-BirA*, compared with BirA* alone; biotin in the medium for 24 hours; RIPA lysis; biotinylated proteins captured on streptavidin beads; mass spectrometry

B1: MYRF (endogenous in ARPE-19 cells) (protein, UniProt Q9Y2G1 1-1151)
chain: MEVVDETEALQRFFEGHDINGALEPSNIDTSILEEYISKEDASDLCFPDISAPASSASYSHGQPAMPGSSGVHHLSPPGGGPSPGRHGPLPPPGYGTPLNCNNNNGMGAAPKPFPGGTGPPIKAEPKAPYAPGTLPDSPPDSGSEAYSPQQVNEPHLLRTITPETLCHVGVPSRLEHPPPPPAHLPGPPPPPPPPPHYPVLQRDLYMKAEPPIPHYAAMGQGLVPTDLHHTQQSQMLHQLLQQHGAELPTHPSKKRKHSESPPSTLNAQMLNGMIKQEPGTVTALPLHPTRAPSPPWPPQGPLSPGPGSLPLSIARVQTPPWHPPGAPSPGLLQDSDSLSGSYLDPNYQSIKWQPHQQNKWATLYDANYKELPMLTYRVDADKGFNFSVGDDAFVCQKKNHFQVTVYIGMLGEPKYVKTPEGLKPLDCFYLKLHGVKLEALNQSINIEQSQSDRSKRPFNPVTVNLPPEQVTKVTVGRLHFSETTANNMRKKGKPNPDQRYFMLVVALQAHAQNQNYTLAAQISERIIVRASNPGQFESDSDVLWQRAQVPDTVFHHGRVGINTDRPDEALVVHGNVKVMGSLMHPSDLRAKEHVQEVDTTEQLKRISRMRLVHYRYKPEFAASAGIEATAPETGVIAQEVKEILPEAVKDTGDMVFANGKTIENFLVVNKERIFMENVGAVKELCKLTDNLETRIDELERWSHKLAKLRRLDSLKSTGSSGAFSHAGSQFSRAGSVPHKKRPPKVASKSSSVVPDQACISQRFLQGTIIALVVVMAFSVVSMSTLYVLSLRTEEDLVDTDGSFAVSTSCLLALLRPQPPGGSEALCPWSSQSFGTTQLRQSPLTTGLPGIQPSLLLVTTSLTSSAPGSAVRTLDMCSSHPCPVICCSSPTTNPTTGPSLGPSFNPGHVLSPSPSPSTNRSGPSQMALLPVTNIRAKSWGLSVNGIGHSKHHKSLEPLASPAVPFPGGQGKAKNSPSLGFHGRARRGALQSSVGPAEPTWAQGQSASLLAEPVPSLTSIQVLENSMSITSQYCAPGDACRPGNFTYHIPVSSGTPLHLSLTLQMNSSSPVSVVLCSLRSKEEPCEEGSLPQSLHTHQDTQGTSHRWPITILSFREFTYHFRVALLGQANCSSEALAQPATDYHFHFYRLCD
modifications: biotinylated by TMEM98-BirA* (sites not given)
- binding: binds
